Reference: PubChem BioAssay AID493246 (Drosophila RNAi Screening Center, 2011)
The deposit covers about 21,000 reagents; below is an unselected part of those that have a named target and a result. Of all reagents, 429 (2%) were called active. 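Values are raw and not normalised between plates; calls rest on per-plate z-scores that were not deposited.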 Entries without a mark were called inactive. Names joined by + are all predicted targets of the reagent. Not given: the amount of reagent, the time to read-out.

Screen: 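Genome-wide search for dsRNAs that reduce cell number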 (primary screen)
System: Drosophila Kc and S2R+ cells
Reagent: long dsRNA against Drosophila genes
Detection: 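Raw, unnormalised count of remaining cells in each well; per-plate z-scores of cell number underlie the calls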
Reading the numbers: Kc cell number and S2R+ cell number: higher = more cells remaining
Active means: 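Counted as a hit if cell number falls by a z-score of at least 3 within its plate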

Gene	DRSC id	Kc cell number, rep 1	Kc cell number, rep 2	S2R+ cell number, rep 1	S2R+ cell number, rep 2
CG15905	DRSC06591	1.60e6	1.77e6	1.30e6	1.51e6
CG6209	DRSC06968	1.51e6	1.52e6	1.27e6	1.37e6
Blos4	DRSC10151	1.36e6	1.68e6	1.18e6	1.29e6
ocn	DRSC17020	1.52e6	1.56e6	1.14e6	1.23e6
CG1791	DRSC18141	5.55e5		8.89e5	
CG9150	DRSC03148	1.52e6	1.43e6	1.17e6	1.32e6
Trissin	DRSC14994	1.43e6	1.45e6	1.13e6	1.26e6
SP1173	DRSC11277	1.34e6	1.43e6	1.20e6	1.13e6
Src42A	DRSC04915	1.56e6	1.62e6	1.32e6	1.45e6
CG11807	DRSC06087	1.12e6	1.10e6	7.13e5	6.05e5
bigmax	DRSC15481	5.17e5		8.50e5	
snz	DRSC17969	1.47e6	1.48e6	1.07e6	1.11e6
CG31533	DRSC13018	1.41e6	1.68e6	1.08e6	1.28e6
Marcal1	DRSC02718	1.51e6	1.46e6	1.08e6	1.22e6
salr	DRSC03607	1.82e6	1.87e6	1.23e6	1.32e6
Rtnl2	DRSC12609	1.49e6	1.60e6	1.28e6	1.41e6
betaNACtes1	DRSC19534	1.54e6	1.48e6	1.07e6	1.18e6
osa	DRSC17022	1.37e6	1.55e6	1.16e6	1.27e6
CG14113	DRSC10116	1.23e6	1.21e6	1.27e6	1.40e6
Ppr-Y	DRSC20892	1.20e6	1.53e6	1.18e6	1.18e6
CG14074	DRSC10079	1.66e6	1.75e6	1.32e6	1.41e6
CG14270	DRSC17913	1.45e6	1.48e6	1.10e6	1.23e6
CG4627	DRSC06873	1.59e6	1.59e6	1.25e6	1.32e6
CG13123	DRSC02219	1.74e6	1.86e6	1.40e6	1.62e6
CG6220	DRSC06969	1.67e6	1.81e6	1.45e6	1.55e6
CG13924	DRSC08393	1.61e6	1.43e6	1.13e6	1.36e6
Acp53C14b	DRSC06569	1.62e6	1.69e6	1.20e6	1.42e6
CG31777	DRSC00201	1.59e6	1.59e6	1.05e6	1.14e6
Snap25	DRSC21228	1.70e6	1.65e6	1.12e6	1.22e6
Snap25	DRSC21236	1.53e6	1.65e6	1.02e6	1.18e6
CG9368	DRSC11067	1.42e6	1.41e6	1.19e6	1.24e6
Sema2b	DRSC05609	5.97e5		7.70e5	
Sema2b	DRSC05611	6.35e5		7.50e5	
Sema2b	DRSC06867	1.91e6	1.91e6	1.18e6	1.39e6
sgll	DRSC15442	1.38e6	1.47e6	1.25e6	1.32e6
moi + Tgs1	DRSC16371	1.42e6	1.55e6	9.69e5	1.03e6
Pde1c	DRSC02421	1.66e6	1.63e6	1.29e6	1.45e6
Pde1c	DRSC02422	1.55e6	1.62e6	1.25e6	1.47e6
Pde1c	DRSC02423	1.55e6	1.62e6	1.24e6	1.49e6
Pde1c	DRSC02424	1.69e6	1.70e6	1.31e6	1.62e6
Pde1c	DRSC02425	1.60e6	1.71e6	1.15e6	1.33e6
Pde1c	DRSC02426	1.53e6	1.68e6	1.23e6	1.35e6
CG17202	DRSC15194	1.61e6	1.77e6	1.14e6	1.21e6
Mvk + CG33672 + spt4	DRSC05356	1.52e6	1.50e6	9.93e5	1.10e6
Mvk + CG33672 + spt4	DRSC06628	1.22e6	1.26e6	1.20e6	1.23e6
Mob3	DRSC02791	1.70e6	1.80e6	1.33e6	1.45e6
Dlg5	DRSC02964	1.18e6	1.21e6	9.53e5	1.03e6
qin	DRSC14782	1.27e6	1.27e6	1.14e6	1.21e6
CG6527	DRSC10659	1.69e6	1.73e6	1.31e6	1.46e6
CycC	DRSC16619	1.65e6	1.65e6	1.24e6	1.27e6
ORMDL	DRSC11737	1.41e6	1.51e6	1.20e6	1.31e6
wor	DRSC03637	1.46e6	1.56e6	1.20e6	1.34e6
nompC	DRSC03581	1.52e6	1.76e6	1.06e6	1.24e6
Sprn	DRSC10132	1.22e6	1.34e6	1.25e6	1.46e6
Cpr92A	DRSC16000	1.38e6	1.43e6	1.25e6	1.36e6
agt	DRSC12611	1.36e6	1.48e6	1.27e6	1.36e6
IntS6	DRSC18281	6.23e5		8.11e5	
CG32483	DRSC07902	1.53e6	1.52e6	1.02e6	1.17e6
CG33483	DRSC14019	1.14e6	1.53e6	1.08e6	1.13e6
Not1	DRSC06787	1.66e6	1.74e6	1.08e6	1.28e6
Not1	DRSC06794	1.17e6	1.31e6	7.68e5	7.89e5
CG30466	DRSC05556	1.43e6	1.38e6	9.97e5	1.14e6
PGRP-SC2	DRSC06481	1.67e6	1.67e6	1.35e6	1.47e6
CG4892	DRSC01937	1.72e6	1.95e6	1.30e6	1.55e6
Tmtc4	DRSC15702	1.26e6	1.30e6	1.21e6	1.33e6
Hmt4-20	DRSC18482	4.73e5		6.96e5	
CG32147	DRSC09346	1.55e6	1.61e6	1.15e6	1.34e6
cpo	DRSC13265	1.66e6	1.85e6	1.08e6	1.19e6
SecS	DRSC12222	1.41e6	1.56e6	1.24e6	1.32e6
mei-W68	DRSC07649	1.76e6	1.77e6	1.30e6	1.48e6
CG44836	DRSC09915	1.41e6	1.38e6	1.23e6	1.30e6
drd	DRSC19343	1.53e6	1.54e6	1.20e6	1.24e6
ema	DRSC14536	1.37e6	1.61e6	8.53e5	9.70e5
CG15450	DRSC20522	1.37e6	1.30e6	1.01e6	1.14e6
CG3662	DRSC00626	1.45e6	1.46e6	5.97e5	7.58e5

Entries above whose gene name starts with N or n:
Gene	DRSC id	Kc cell number, rep 1	Kc cell number, rep 2	S2R+ cell number, rep 1	S2R+ cell number, rep 2
nompC	DRSC03581	1.52e6	1.76e6	1.06e6	1.24e6
Not1	DRSC06787	1.66e6	1.74e6	1.08e6	1.28e6
Not1	DRSC06794	1.17e6	1.31e6	7.68e5	7.89e5
